Results taken from patent US9587223B2, “Protocols for making hepatocytes from embryonic stem cells” (Asterias Biotherapeutics, Inc., priority 2000, dated 2017).

Test system: hES cells (embryoid bodies)
Settings: analogs of butyrate tested at 5 mM
Description: In this experiment, hES cells were maintained on primary mouse embryonic fibroblasts in serum-free medium according to standard methods.
The EBs were fed every other day.
Various analogs of butyrate were also tested at 5 mM.

CC(C)CC(=O)O [isovaleric acid]
causing hepatocyte differentiation: effective
